Experimental data from patent US12156523B2 (priority 2017, dated 2024).
Some of these results come from one statement about several compounds together.

system: rice (cultivar: Jikkoku); test: Barrier to growth of rice (phytotoxicity, Example 18); type: in vivo; conditions: untreated plant length set as 100; 0.2 mg/mL acetone solution diluted 10-fold, 0.25 mL per 1 mL of soil; first leaf stage; example compounds
Procedure: The acetone solutions of each example compound and compounds described in the prior art documents shown in the below-mentioned Table 38 (hereinafter, referred to as compounds of Comparative Examples 1 to 5, respectively) were prepared such that the content thereof became 0.2 mg/mL, and then diluted to 10-fold with water to be subjected to conducting test. 0.25 mL of the diluted solution per 1 mL of the soil was made to be absorbed in the soil. Then, rice seeds (cultivar: Jikkoku) subjected to forcing to germination were seeded in the soil to be cultivated in plant cultivation chambers. The plant length of the rice grown to the first leaf stage was measured, and the ratio of the plant length, relative to the untreated plant length set as 100, (hereinafter, referred to as “the ratio of plant length relative to untreated plant length”) was calculated. The presence or absence of the barrier to growth was determined from the calculated ratio.

Row | Structure (SMILES) | Ratio of plant length relative to untreated plant length
1 | CC(C)Oc1cccc(N(C)C(=O)c2cc(F)nc(F)c2F)c1 [Example 1-1] | ≥ 80
2 | CN(C(=O)c1cc(F)nc(F)c1F)c1ccccc1 [Example 1-2] | ≥ 80
3 | O=C(Nc1ccc2c(c1)CCCC2)c1cc(F)nc(F)c1F [Example 1-3] | ≥ 80
4 | O=C(Nc1c(F)c(F)c(C(F)(F)F)c(F)c1F)c1cc(F)nc(F)c1F [Example 1-4] | ≥ 80
5 | O=C(Nc1cccc(Cl)c1Cl)c1cc(F)nc(F)c1F [Example 1-5] | ≥ 80
6 | Cc1cc(C)c(NC(=O)c2cc(F)nc(F)c2F)c(C)c1 [Example 1-6] | ≥ 80
7 | O=C(Nc1nc2ccccc2[nH]1)c1cc(F)nc(F)c1F [Example 1-8] | ≥ 80
8 | O=C(Nc1ccc2c(c1)OCCO2)c1cc(F)nc(F)c1F [Example 1-9] | ≥ 80
9 | N#Cc1cc([N+](=O)[O-])ccc1NC(=O)c1cc(F)nc(F)c1F [Example 1-11] | ≥ 80
10 | O=C(NC1=NCCS1)c1cc(F)nc(F)c1F [Example 1-12] | ≥ 80
11 | COC(=O)c1sccc1NC(=O)c1cc(F)nc(F)c1F [Example 1-13] | ≥ 80
12 | Cc1ccccc1NC(=O)c1cc(F)nc(F)c1F [Example 1-14] | ≥ 80
13 | O=C(Nc1cnccn1)c1cc(F)nc(F)c1F [Example 1-15] | ≥ 80
14 | O=C(Nc1ccccn1)c1cc(F)nc(F)c1F [Example 1-16] | ≥ 80
15 | O=C(Nc1ncccn1)c1cc(F)nc(F)c1F [Example 1-17] | ≥ 80
16 | O=C(Nc1nccs1)c1cc(F)nc(F)c1F [Example 1-18] | ≥ 80
17 | O=C(Nc1cc(Cl)c(Cl)c(Cl)c1)c1cc(F)nc(F)c1F [Example 1-19] | ≥ 80
18 | COc1cc(NC(=O)c2cc(F)nc(F)c2F)cc(OC)c1OC [Example 1-20] | ≥ 80
19 | O=C(Nc1ccc(F)c(F)c1)c1cc(F)nc(F)c1F [Example 1-21] | ≥ 80
20 | COc1ccc(NC(=O)c2cc(F)nc(F)c2F)cc1OC [Example 1-22] | ≥ 80
21 | Cc1ccc(NC(=O)c2cc(F)nc(F)c2F)cc1C [Example 1-23] | ≥ 80
22 | O=C(Nc1cc(Cl)cc(Cl)c1)c1cc(F)nc(F)c1F [Example 1-24] | ≥ 80
23 | COc1cc(NC(=O)c2cc(F)nc(F)c2F)cc(OC)c1 [Example 1-25] | ≥ 80
24 | Cc1cc(C)cc(NC(=O)c2cc(F)nc(F)c2F)c1 [Example 1-26] | ≥ 80
25 | O=C(Nc1cccc(Cc2ccccc2)c1)c1cc(F)nc(F)c1F [Example 1-27] | ≥ 80
26 | Cc1ccc(NC(=O)c2cc(F)nc(F)c2F)cc1Br [Example 1-28] | ≥ 80

Row | Structure (SMILES) | Ratio of plant length relative to untreated plant length
27 | O=C(Nc1ccc(F)c(Cl)c1)c1cc(F)nc(F)c1F [Example 1-29] | ≥ 80
28 | Cc1ccc(NC(=O)c2cc(F)nc(F)c2F)cc1Cl [Example 1-30] | ≥ 80
29 | O=C(Nc1ccc(C(F)(F)F)c(Cl)c1)c1cc(F)nc(F)c1F [Example 1-31] | ≥ 80
30 | O=C(Nc1cccc(Cl)c1)c1cc(F)nc(F)c1F [Example 1-32] | ≥ 80
31 | N#Cc1cccc(NC(=O)c2cc(F)nc(F)c2F)c1 [Example 1-34] | ≥ 80
32 | N#Cc1ccccc1NC(=O)c1cc(F)nc(F)c1F [Example 1-35] | ≥ 80
33 | CCOC(=O)c1cccc(NC(=O)c2cc(F)nc(F)c2F)c1 [Example 1-37] | ≥ 80
34 | CCOc1cccc(NC(=O)c2cc(F)nc(F)c2F)c1 [Example 1-38] | ≥ 80
35 | Cc1ccc(NC(=O)c2cc(F)nc(F)c2F)cc1F [Example 1-39] | ≥ 80
36 | Cc1ccc(NC(=O)c2cc(F)nc(F)c2F)cc1I [Example 1-40] | ≥ 80
37 | CC(C)Oc1cccc(NC(=O)c2cc(F)nc(F)c2F)c1 [Example 1-41] | ≥ 80
38 | CC(C)c1cccc(NC(=O)c2cc(F)nc(F)c2F)c1 [Example 1-42] | ≥ 80
39 | COC(=O)c1ccsc1NC(=O)c1cc(F)nc(F)c1F [Example 1-43] | ≥ 80
40 | COc1cccc(NC(=O)c2cc(F)nc(F)c2F)c1 [Example 1-44] | ≥ 80
41 | Cc1cccc(NC(=O)c2cc(F)nc(F)c2F)c1 [Example 1-46] | ≥ 80
42 | O=C(Nc1cccc(Oc2ccccc2)c1)c1cc(F)nc(F)c1F [Example 1-47] | ≥ 80
43 | O=C(Nc1cccnn1)c1cc(F)nc(F)c1F [Example 1-48] | ≥ 80
44 | O=C(Nc1cccnc1)c1cc(F)nc(F)c1F [Example 1-49] | ≥ 80
45 | O=C(Nc1nc[nH]n1)c1cc(F)nc(F)c1F [Example 1-51] | ≥ 80
46 | O=C(Nc1cccc(OC(F)(F)F)c1)c1cc(F)nc(F)c1F [Example 1-52] | ≥ 80
47 | O=C(Nc1ccc(Cl)c(F)c1)c1cc(F)nc(F)c1F [Example 1-53] | ≥ 80
48 | O=C(Nc1ccc(Cl)cc1)c1cc(F)nc(F)c1F [Example 1-54] | ≥ 80
49 | N#Cc1ccc(NC(=O)c2cc(F)nc(F)c2F)cc1 [Example 1-55] | ≥ 80
50 | CCOC(=O)c1ccc(NC(=O)c2cc(F)nc(F)c2F)cc1 [Example 1-56] | ≥ 80
51 | CCOc1ccc(NC(=O)c2cc(F)nc(F)c2F)cc1 [Example 1-57] | ≥ 80
52 | Cc1cc(NC(=O)c2cc(F)nc(F)c2F)ccc1F [Example 1-58] | ≥ 80

Row | Structure (SMILES) | Ratio of plant length relative to untreated plant length
53 | CC(C)Oc1ccc(NC(=O)c2cc(F)nc(F)c2F)cc1 [Example 1-59] | ≥ 80
54 | CC(C)c1ccc(NC(=O)c2cc(F)nc(F)c2F)cc1 [Example 1-60] | ≥ 80
55 | COc1ccc(NC(=O)c2cc(F)nc(F)c2F)cc1 [Example 1-61] | ≥ 80
56 | COc1ccnc(NC(=O)c2cc(F)nc(F)c2F)c1 [Example 1-62] | ≥ 80
57 | COc1cc(NC(=O)c2cc(F)nc(F)c2F)ccc1C [Example 1-63] | ≥ 80
58 | Cc1ccc(NC(=O)c2cc(F)nc(F)c2F)cc1[N+](=O)[O-] [Example 1-64] | ≥ 80
59 | Cc1ccc(NC(=O)c2cc(F)nc(F)c2F)cc1C(F)(F)F [Example 1-65] | ≥ 80
60 | Cc1ccc(NC(=O)c2cc(F)nc(F)c2F)cc1 [Example 1-66] | ≥ 80
61 | O=C(Nc1ccc([N+](=O)[O-])cc1)c1cc(F)nc(F)c1F [Example 1-67] | ≥ 80
62 | O=C(Nc1ccc(Oc2ccccc2)cc1)c1cc(F)nc(F)c1F [Example 1-68] | ≥ 80
63 | O=C(Nc1ccncc1)c1cc(F)nc(F)c1F [Example 1-69] | ≥ 80
64 | CC(C)(C)Oc1ccc(NC(=O)c2cc(F)nc(F)c2F)cc1 [Example 1-70] | ≥ 80
65 | CC(C)(C)c1ccc(NC(=O)c2cc(F)nc(F)c2F)cc1 [Example 1-71] | ≥ 80
66 | O=C(Nc1ccc(OC(F)(F)F)cc1)c1cc(F)nc(F)c1F [Example 1-72] | ≥ 80
67 | Cc1cc(NC(=O)c2cc(F)nc(F)c2F)no1 [Example 1-73] | ≥ 80
68 | Cc1cnc(NC(=O)c2cc(F)nc(F)c2F)s1 [Example 1-74] | ≥ 80
69 | O=C(NCc1ccccc1)c1cc(F)nc(F)c1F [Example 1-75] | ≥ 80
70 | CC(C)(C)NC(=O)c1cc(F)nc(F)c1F [Example 1-76] | ≥ 80
71 | COCCNC(=O)c1cc(F)nc(F)c1F [Example 1-77] | ≥ 80
72 | O=C(NCCO)c1cc(F)nc(F)c1F [Example 1-78] | ≥ 80
73 | O=C(NCCS)c1cc(F)nc(F)c1F [Example 1-79] | ≥ 80
74 | O=C(NC(CO)c1ccccc1)c1cc(F)nc(F)c1F (centres unmarked) [Example 1-81] | ≥ 80
75 | CC(C)NC(=O)c1cc(F)nc(F)c1F [Example 1-82] | ≥ 80
76 | CC(NC(=O)c1cc(F)nc(F)c1F)c1ccc(Cl)cc1Cl (centres unmarked) [Example 1-83] | ≥ 80
77 | CC(NC(=O)c1cc(F)nc(F)c1F)c1ccc(Cl)cc1 (centres unmarked) [Example 1-84] | ≥ 80
